Data source: PubChem BioAssay AID1259425 (University of Nebraska Medical Center, 2018)

Test: 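Compare each knockdown with KSR1 silencing using changes in marker transcripts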 (primary screen)
Cells: HCT116 human colon cancer cells
Reagent: siRNA pool against human genes, 50 nM siRNA
Read-out: 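mRNA of six signature genes measured together by branched-DNA assay after 50 nM siRNA pool, blank removed, divided by geometric mean of two housekeeping genes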
Scale: BNIP3L mRNA: higher = more BNIP3L transcript after knockdown; NDRG1 mRNA: higher = more NDRG1 transcript after knockdown; BNIP3 mRNA: higher = more BNIP3 transcript after knockdown; ALDOC mRNA: higher = more ALDOC transcript after knockdown; ACSL5 mRNA: higher = more ACSL5 transcript after knockdown
Shown is a random part of about 14,000 reagents tested. No sequences are given here. The record does not give: the time to read-out.

target gene	BNIP3L mRNA, set 1	NDRG1 mRNA, set 1	BNIP3 mRNA, set 1	ALDOC mRNA, set 1	ACSL5 mRNA, set 1
ATP4B	0.0889	0.131	0.319	0.0562	0.098
FABP6	0.0941	0.263	0.249	0.0294	0.103
RBSN	0.0957	0.127	0.209	0.0431	0.104
SDHAF3	0.114	0.222	0.256	0.0406	0.295
GNA14	0.283	0.385	0.419	0.0343	0.335
SH3YL1	0.121	0.197	0.218	0.0246	0.198
CNTN3	0.0508	0.213	0.287	0.0474	0.172
LY6D	0.159	0.189	0.472	0.0137	0.204
SPRR1B	0.14	0.692	0.584	0.0396	0.0425
ITGA2B	0.111	0.446	0.196	0.0361	0.176
UBE2D4	0.081	0.104	0.186	0.0172	0.0757
KRT83	0.112	0.207	0.312	0.0151	0.0827
SHC2	0.0574	0.189	0.188	0.00995	0.172
STN1	0.0893	0.214	0.285	0.0442	0.202
KPNA1	0.139	0.161	0.319	0.0654	0.145
SLC4A7	0.125	0.14	0.3	0.0308	0.144
HDAC8	0.0852	0.228	0.282	0.0142	0.19
NOD1	0.0679	0.157	0.26	0.015	0.172
MAX	0.252	0.26	0.455	0.0143	0.127
SLC39A1	0.182	0.351	0.408	0.00886	0.158
TFCP2	0.0642	0.346	0.235	0.027	0.157
DTYMK	0.0805	0.225	0.345	0.00487	0.342
RPS6KA4	0.121	0.158	0.342	0.0277	0.408
DOK2	0.0898	0.396	0.337	0.0313	0.237
PEX11A	0.0625	0.112	0.258	0.0184	0.158
ZNF771	0.208	0.477	0.48	0.0472	0.338
MYO19	0.106	0.428	0.414	0.0528	0.311
ENDOD1	0.0966	0.379	0.196	0.0133	0.284
GET1	0.213	0.376	0.393	0.0542	0.252
HDC	0.0917	0.208	0.129	0.0268	0.285
TRPC4	0.0948	0.11	0.396	0.0243	0.152
UBE2G2	0.0679	0.231	0.162	0.0208	0.11
TCP11L1	0.104	0.163	0.419	0.0089	0.169

Next part; the last 5 above are carried over.
target gene	BNIP3L mRNA, set 1	NDRG1 mRNA, set 1	BNIP3 mRNA, set 1	ALDOC mRNA, set 1	ACSL5 mRNA, set 1
GET1	0.213	0.376	0.393	0.0542	0.252
HDC	0.0917	0.208	0.129	0.0268	0.285
TRPC4	0.0948	0.11	0.396	0.0243	0.152
UBE2G2	0.0679	0.231	0.162	0.0208	0.11
TCP11L1	0.104	0.163	0.419	0.0089	0.169
RNF138	0.0692	0.147	0.253	0.0237	0.213
GINS2	0.109	0.44	0.345	0.0554	0.211
SLC35E2A	0.146	0.11	0.241	0.0279	0.11
DDX21	0.137	0.52	0.307	0.0281	0.258
PRELP	0.0984	0.267	0.317	0.0309	0.196
ZNF71	0.0947	0.143	0.361	0.0653	0.121
RXFP4	0.319	0.245	0.617	0.115	0.267
MAP4K5	0.0639	0.131	0.446	0.0359	0.235
MARVELD1	0.258	0.323	0.313	0.0879	0.374
UGT8	0.0826	0.123	0.259	0.00752	0.122
SREBF2	0.111	0.143	0.228	0.0459	0.172
CEACAM6	0.169	0.332	0.312	0.0889	0.141
LRP2BP	0.347	0.31	0.176	0.00104	0.224
ZNF217	0.0847	0.56	0.266	0.0715	0.141
NUMBL	0.213	0.5	0.408	0.0513	0.134
SLC22A2	0.112	0.263	0.392	0.0407	0.217
IFNA6	0.116	0.254	0.268	0.024	0.139
